Test results published in PubChem BioAssay AID2685 (National Center for Advancing Translational Sciences (NCATS), 2010).
The other results are listed elsewhere or left out. Further columns of the screen follow, without active or inactive calls. The list favours compounds with an active or inconclusive main result. Potencies come from curve fits of mixed quality, noted in brackets.

Experiment: qHTS Assay for Lipid Storage Modulators in Drosophila S3 Cells;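 for cell number change: cells counted by Cell Tracker Red CMTPX staining in the red channel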
Details: BODIPY lipid droplet fluorescence, 18-24 h; for cell number change: measured here: cell count max response, cells fed with added oleic acid
Outline: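 Drosophila S3 cells loaded with oleic acid (400 uM, as added) and compounds at several concentrations; lipid droplets imaged by 488-nm laser-scanning cytometry, 500–530 nm intensity and object ratio to cell channel. Percent activity normalized to 20 uM Triacsin C.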

[1] = measured here: lipid fluorescence (Fed channel) AC50, cells fed with added oleic acid
[2] = measured here: cell number channel AC50, cells fed with added oleic acid

Question: Which cell number change does the source give for CCn1c(SCC(=O)Nc2nc(C)c(C(=O)OC)s2)nnc1C(C)C here?
Answer: 3.19%

Question: And the AC50 [1]?
Answer: 13 µM [rising, single point]

Question: What does the source list for Cc1nnc(N2CCCC(C(=O)NCc3ccccc3F)C2)c2nn(-c3ccccc3)c(C)c12 (stereo not drawn)?
Answer: cell number change: 9.54%; AC50 [1]: 0.146 µM [falling, full curve, poor fit]

Question: With COc1ccccc1-c1cc(C(=O)NCc2ccco2)no1 as the compound, how does the cell number change read?
Answer: -14.5%

Question: For Fc1ccc2c(c1)/C(=N/Nc1ccccn1)CCS2, which cell number change is on record?
Answer: 24.9%

Question: And the AC50 [1]?
Answer: 20.6 µM [rising, single point]

Question: Which results are given for CCOc1ccc(OCC)c(NC(=O)CCn2cccc2)c1?
Answer: cell number change: -7.58%; AC50 [1]: 2.59 µM [rising, single point]

Question: For COc1ccccc1N1C(=O)C2ON(c3ccccc3)C(c3ccc(N(C)C)cc3)C2C1=O (stereo not drawn), which cell number change is on record?
Answer: -24.4%

Question: What about the AC50 [1] of the same compound?
Answer: 23.1 µM [falling, single point]

Question: With O=C(CCN1C(=O)/C(=C/c2ccc(F)cc2)SC1=S)NC1CCS(=O)(=O)C1 (stereo not drawn) as the compound, how does the cell number change read?
Answer: 14.2%

Question: And the AC50 [1]?
Answer: 18.4 µM [falling, single point]

Question: What does the source list for COc1cccc2c(=O)cc(C)n(CC(=O)Nc3ccccc3C)c12?
Answer: cell number change: -33.2%; AC50 [1]: 0.092 µM [rising, full curve]

Question: Which cell number change does the source give for Cc1cc(C(=O)Cn2cc([N+](=O)[O-])ccc2=O)c(C)n1CC1CCCO1 (stereo not drawn) here?
Answer: -14.6%

Question: What does the source list for Cc1cccc(C)c1NC(=O)C(Cl)C(=O)c1ccccc1 (stereo not drawn)?
Answer: cell number change: -18.3%; AC50 [1]: 0.58 µM [rising, single point]

Question: With CCOC(=O)c1c(NC(=O)CSc2nc3ccccc3o2)sc(C(C)=O)c1C as the compound, how does the cell number change read?
Answer: 19.8%

Question: And the AC50 [1]?
Answer: 1.46 µM [rising, full curve]

Question: Which AC50 [1] does the source give for Cc1ccc(SCc2nc3ccccc3n2CC(=O)Nc2ccc(Cl)cc2)cc1 here?
Answer: 7.31 µM [falling, partial curve, poor fit]

Question: What does the source list for COc1cccc(NC(=O)C/C(C)=N/NC(=O)c2ccccc2Cl)c1?
Answer: cell number change: 9.35%; AC50 [1]: 16.4 µM [rising, single point]

Question: With CCN(CC(=O)Nc1c(F)cccc1F)C(=O)C1CC(=O)N(c2ccc3c(c2)OCCO3)C1 (stereo not drawn) as the compound, how does the cell number change read?
Answer: -17.3%

Question: Which results are given for CC1CCCN(S(=O)(=O)c2ccc(Cl)s2)C1 (stereo not drawn)?
Answer: cell number change: 8.12%; AC50 [1]: 6.51 µM [falling, single point]

Question: Which results are given for CCC(=O)NC(Cc1ccccc1)c1ccc2c(c1)OCCCO2 (stereo not drawn)?
Answer: cell number change: 13%; AC50 [2]: 4.11 µM [rising, partial curve, poor fit]

Question: What does the source list for CCOc1ccccc1NC(=O)c1cccc(NC(=O)C2CCCC2)c1?
Answer: cell number change: -36.5%; AC50 [2]: 29.1 µM [falling, single point]; AC50 [1]: 2.06 µM [falling, partial curve]

Question: With Cc1nc(Nc2cc(F)ccc2C)c2nnn(Cc3ccccc3)c2n1 as the compound, how does the cell number change read?
Answer: -16.1%

Question: With CCOc1ccc(OCCn2c(=S)[nH]c3c(N)ncnc32)cc1 as the compound, how does the AC50 [1] read?
Answer: 0.651 µM [rising, single point]

Question: With Cc1[nH]nc2c1C(c1cc(Br)cs1)C(C#N)=C(N)O2 (stereo not drawn) as the compound, how does the cell number change read?
Answer: 10.8%

Question: And the AC50 [2]?
Answer: 3.26 µM [rising, partial curve]

Question: What about the AC50 [1] of the same compound?
Answer: 2.91 µM [rising, partial curve]

Question: Which cell number change does the source give for Cc1nnc(-c2ccco2)c2cn(-c3cccc(Br)c3)nc12 here?
Answer: 50%

Question: And the AC50 [2]?
Answer: 18.4 µM [rising, single point]

Question: And the AC50 [1]?
Answer: 0.82 µM [rising, full curve, poor fit]

Question: With CC(C)Cc1cc(C(=O)N2CCC(N3CCC(C(=O)N4CCCC4)CC3)CC2)n[nH]1 as the compound, how does the cell number change read?
Answer: 11.9%

Question: What about the AC50 [1] of the same compound?
Answer: 29.1 µM [rising, single point]

Question: With CCN(CC)C(=O)COc1ccc2oc(C)c(C(=O)OC(C)C)c2c1 as the compound, how does the AC50 [1] read?
Answer: 3.26 µM [rising, partial curve]

Question: Which cell number change does the source give for Clc1ccc(-c2csc(N3CCCCCC3)n2)cc1 here?
Answer: -31%

Question: What about the AC50 [2] of the same compound?
Answer: 7.31 µM [falling, partial curve]

Question: And the AC50 [1]?
Answer: 29.1 µM [falling, single point]

Question: What does the source list for Cc1cccc(N(CC(=O)Nc2ccc(F)cc2)S(C)(=O)=O)c1?
Answer: cell number change: 52.6%; AC50 [2]: 20.6 µM [rising, single point]

Question: With O=C(COC(=O)c1ccc(NS(=O)(=O)c2cccs2)cc1)NCc1ccco1 as the compound, how does the cell number change read?
Answer: -16%

Question: What about the AC50 [1] of the same compound?
Answer: 0.517 µM [falling, full curve, poor fit]

Question: For Cc1ccc(C(=O)N2CCN(C(=O)CN3CCCC3)C2)cc1, which cell number change is on record?
Answer: -3.46%

Question: Which cell number change does the source give for Cc1ccccc1OCCSc1nnc(-c2ccncc2)n1C here?
Answer: -8.54%

Question: Which cell number change does the source give for O=C(Nc1cc(Cl)cc(Cl)c1)c1cccc(OC(F)F)c1 here?
Answer: -36.5%

Question: What about the AC50 [2] of the same compound?
Answer: 18.4 µM [falling, single point]

Question: And the AC50 [1]?
Answer: 18.4 µM [falling, single point]

Question: With Cn1c(=O)oc2cc(S(=O)(=O)N3CCCC(C(=O)Nc4ccccn4)C3)ccc21 (stereo not drawn) as the compound, how does the cell number change read?
Answer: -1.09%

Question: And the AC50 [1]?
Answer: 0.00517 µM [rising, full curve, poor fit]

Question: What does the source list for CCc1noc(C)c1C(=O)N(C)CC(=O)Nc1ccccc1Br?
Answer: cell number change: 26.2%; AC50 [1]: 18.4 µM [rising, single point]

Question: For CCN(C(=O)COC(=O)c1ccccc1SCC(=O)NC1CCCCCCC1)C1CCS(=O)(=O)C1 (stereo not drawn), which AC50 [1] is on record?
Answer: 0.00461 µM [falling, full curve, poor fit]

Question: What does the source list for O=C(CCCN1C(=O)NC2(CCCC2)C1=O)NCc1ccccc1?
Answer: cell number change: 23.9%; AC50 [1]: 32.6 µM [rising, single point]

Question: With Cc1cc(=O)[nH]c(SCC(=O)Nc2nc(-c3ccccc3)cs2)n1 as the compound, how does the cell number change read?
Answer: 2.19%

Question: What about the AC50 [1] of the same compound?
Answer: 29.1 µM [rising, single point]

Question: With N#Cc1ccccc1NC(=O)c1cc(=O)c2ccccc2o1 as the compound, how does the cell number change read?
Answer: -14%

Question: What about the AC50 [1] of the same compound?
Answer: 0.103 µM [rising, full curve, poor fit]

Question: What does the source list for COc1ccc(C2=NCCn3c2c2ccc(C(F)(F)F)cc2[n+]3[O-])cc1?
Answer: cell number change: -15.8%; AC50 [2]: 4.11 µM [falling, single point]

Question: Which AC50 [2] does the source give for COc1ccc(NC(=O)CSc2ccccc2)cc1S(=O)(=O)N1CCCCC1 here?
Answer: 0.58 µM [rising, single point]

Question: For O=C(O)c1ccccc1-c1ccccc1C(=O)Nc1ccc2c(c1)[nH]c(=O)c1ccccc12, which cell number change is on record?
Answer: 7.04%

Question: And the AC50 [1]?
Answer: 23.1 µM [rising, partial curve, poor fit]

Question: With CN(CC(=O)Nc1ccc(Cl)c(C(F)(F)F)c1)C(=O)CCN1C(=O)C2CC=CCC2C1=O (stereo not drawn) as the compound, how does the cell number change read?
Answer: 11.2%

Question: What does the source list for O=C(O)c1ccc(NC2CC(=O)N(Cc3ccccc3)C2=O)cc1 (stereo not drawn)?
Answer: cell number change: -4.75%; AC50 [2]: 1.84 µM [falling, partial curve]
